Test results as given in publication PMC11939857.

Molecular target: T1, GFP-PRAG1-TurboID (Peak1-related, kinase-activating pseudokinase 1) (human) (UniProt Q86YV5)
T1 sequence: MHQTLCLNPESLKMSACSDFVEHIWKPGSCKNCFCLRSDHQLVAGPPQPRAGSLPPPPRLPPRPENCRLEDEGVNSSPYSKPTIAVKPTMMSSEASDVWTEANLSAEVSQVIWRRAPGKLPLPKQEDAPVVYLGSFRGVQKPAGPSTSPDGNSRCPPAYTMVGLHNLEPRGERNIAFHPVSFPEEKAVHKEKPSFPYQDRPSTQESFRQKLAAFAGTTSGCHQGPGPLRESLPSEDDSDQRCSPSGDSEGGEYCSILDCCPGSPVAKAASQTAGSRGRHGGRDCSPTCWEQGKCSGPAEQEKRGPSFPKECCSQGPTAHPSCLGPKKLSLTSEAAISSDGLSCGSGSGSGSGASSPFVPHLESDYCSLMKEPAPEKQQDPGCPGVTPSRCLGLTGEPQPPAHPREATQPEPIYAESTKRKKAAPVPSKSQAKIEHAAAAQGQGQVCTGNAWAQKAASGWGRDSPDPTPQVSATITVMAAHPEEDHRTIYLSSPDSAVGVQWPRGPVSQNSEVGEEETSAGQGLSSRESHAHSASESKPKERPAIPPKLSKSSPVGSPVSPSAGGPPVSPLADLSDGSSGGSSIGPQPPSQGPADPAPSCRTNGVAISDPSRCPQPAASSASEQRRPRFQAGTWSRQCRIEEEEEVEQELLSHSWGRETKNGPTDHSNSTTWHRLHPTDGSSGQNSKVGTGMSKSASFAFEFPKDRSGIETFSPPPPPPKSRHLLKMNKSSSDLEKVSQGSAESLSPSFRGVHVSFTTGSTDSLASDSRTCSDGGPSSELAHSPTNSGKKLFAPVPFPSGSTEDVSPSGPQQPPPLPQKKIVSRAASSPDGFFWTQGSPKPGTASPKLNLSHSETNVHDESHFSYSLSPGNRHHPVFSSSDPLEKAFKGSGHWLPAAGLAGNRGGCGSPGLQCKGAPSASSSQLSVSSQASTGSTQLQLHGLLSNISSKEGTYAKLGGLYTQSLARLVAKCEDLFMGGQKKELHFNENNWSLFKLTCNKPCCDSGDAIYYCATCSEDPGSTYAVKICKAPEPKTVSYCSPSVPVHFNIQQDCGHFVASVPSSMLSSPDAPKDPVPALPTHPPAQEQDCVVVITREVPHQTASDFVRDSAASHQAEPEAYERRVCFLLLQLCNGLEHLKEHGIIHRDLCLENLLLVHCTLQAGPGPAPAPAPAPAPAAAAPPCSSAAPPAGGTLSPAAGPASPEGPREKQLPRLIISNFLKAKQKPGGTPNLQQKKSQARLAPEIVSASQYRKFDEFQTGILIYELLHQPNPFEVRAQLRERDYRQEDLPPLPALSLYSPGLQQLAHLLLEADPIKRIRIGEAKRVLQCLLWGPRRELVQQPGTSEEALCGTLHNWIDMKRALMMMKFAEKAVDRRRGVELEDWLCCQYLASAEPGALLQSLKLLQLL
Assay: proximity labelling; TurboID: GFP-PRAG1-TurboID against GFP-TurboID in HEK293T cells, 500 µM biotin for 15 min at 37 °C, weak RIPA lysate, streptavidin magnetic beads, mass spectrometry, four biological replicates

B1: RND2 (protein, UniProt P52198 1-227)
chain: MEGQSGRCKIVVVGDAECGKTALLQVFAKDAYPGSYVPTVFENYTASFEIDKRRIELNMWDTSGSSYYDNVRPLAYPDSDAVLICFDISRPETLDSVLKKWQGETQEFCPNAKVVLVGCKLDMRTDLATLRELSKQRLIPVTHEQGTVLAKQVGAVSYVECSSRSSERSVRDVFHVATVASLGRGHRQLRRTDSRRGMQRSAQLSGRPDRGNEGEIHKDRAKSCNLM
In the case of B1, the binding is reported as “no binding”.

These are yes or no findings as the source states them, for the method shown. Binding seen in cells or lysates may run through a third protein. These calls come from enrichment with a bait or labelling near it, and not all partners need be listed. No binding means not detected with the bait. Where a sequence is shown, tags or fusion partners need not be part of it.
